Experimental findings from PubChem BioAssay AID1487 (National Center for Advancing Translational Sciences (NCATS), 2009) are described below.

A short description of this assay: qHTS Assay for Modulators of Lamin A Splicing. The conditions noted are these: HeLa LMNA splicing GFP/RFP minigene ratio, 48 h. Put shortly: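 Read-out is the ratio of GFP to DsRed2 object intensity, acquired by 488 nm laser-scanning cytometry on HeLa lamin A-EGFP minigene reporter cells. Compound incubation 48 hrs at 37 °C in Opti-MEM with 2% FBS; DMSO 0.5% final.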
(In general: In qHTS, concentration-response curves come from the screen itself.)

The mark [1] stands for this setting: measured here: GFP splicing reporter channel.
Setting [2] is: measured here: RFP viability control channel.

Some of the results follow. Shown are side measurements of this screen, not its main read-out; they come without a call. The list favours compounds with an active or inconclusive main result. Words in brackets tell the shape of the fitted curve; partial curves, single points and poor fits give uncertain potencies.

`CCN(CC)CCn1c2ccccc2c2cnc(N=CN(C)C)c(C#N)c21`: the AC50 – broadly, the midpoint of the concentration-response curve, whichever way the signal moves – under setting [1] is 10 µM [rising, partial curve] and the AC50 under setting [2] was 11.2 µM [rising, partial curve]. Take `CC[n+]1c(/C=C/C=C/N(C(C)=O)c2ccccc2)sc2cc(OC)ccc21`: the AC50 was 12.6 µM [falling, partial curve, poor fit] under setting [1] and 14.1 µM [falling, single point] under setting [2]. On to `FC(F)Sc1ccc(N=C2NN=C(c3ccc4c(c3)OCCO4)CS2)cc1`, for which the AC50 by setting is: under setting [1], 3.16 µM [falling, single point]; under setting [2], 20 µM [falling, single point]. As to `Cc1ccc(NC(=O)c2cc(S(=O)(=O)NC3CCCCCC3)ccc2F)cc1F`, the AC50 is, setting by setting: under setting [1], 14.1 µM [falling, partial curve]; under setting [2], 35.5 µM [falling, partial curve]. Regarding `COc1ccc(CCNc2oc(-c3ccc(C)cc3)nc2C#N)cc1OC`, under setting [2], the AC50 was 14.1 µM [rising, partial curve, poor fit]. As for `CCOc1ccc(C(=O)NC(=S)Nc2ccc(N3CCOCC3)c(Cl)c2)cc1[N+](=O)[O-]`, the AC50 under setting [2] was 22.4 µM [rising, partial curve, poor fit]. With `CCOc1ccc(C(=O)N2CCc3cc(OC)c(OC)cc3C2)cc1OCC`, the AC50 under setting [1] was 31.6 µM [rising, single point] and the AC50 under setting [2] was 20 µM [rising, single point]. As for `CCOc1ccc(N2C(=O)CC(Sc3nc(C)cc(C)c3C#N)C2=O)cc1` (stereo not drawn), the AC50 under setting [1] is 0.0794 µM [rising, full curve, poor fit].

On to `O=C1CC(N2CCN(c3ccccn3)CC2)C(=O)N1CC(c1ccccc1)c1ccccc1` (stereo not drawn), for which the AC50 under setting [2] was 20 µM [rising, single point]. For the compound `COc1ccccc1NC1=NC(C)(C)N=C(N)N1`, under setting [1], the AC50 is 1.26 µM [rising, full curve]. Still for that read-out and setting: next, `O=S(=O)(c1cccc(-c2nnc(SC(F)F)n2-c2ccccc2)c1)N1CCCCC1`: 12.6 µM [rising, partial curve, poor fit]; `NNC(=O)c1cnn(-c2ccccc2)c1-n1cccc1`: 3.55 µM [rising, single point]. In the case of `Cn1cnnc1SCC(=O)c1cc2ccccc2oc1=O`, the half-maximal activity concentration (AC50) under setting [2] is 35.5 µM [rising, single point].

For `CN(C)c1ccc(C=Nc2ccccc2C(N)=O)cc1`, the AC50 under setting [1] is 11.2 µM [rising, partial curve].

Take `COc1ccc(NC(=O)Cn2nc3c(cc2=O)CCCC3)cc1Cl`: the AC50 under setting [1] was 3.55 µM [falling, full curve]. As to `N#Cc1ccc(C(c2nnnn2CCc2ccccc2)N2CCCCCC2)cc1` (stereo not drawn), the AC50 runs as follows: under setting [1], 11.2 µM [rising, single point]; under setting [2], 14.1 µM [rising, single point]. With `COc1ccccc1C1=NN(C2=NN=C(N)Cc3ncnn32)C(O)(C(F)(F)F)C1` (stereo not drawn), under setting [2], the AC50 is 0.0178 µM [falling, full curve].

With `O=C(NCc1ccc(Cl)cc1)c1cc2ccc3cccnc3c2[nH]1`, the AC50 is 11.2 µM [falling, partial curve] under setting [1] and 17.8 µM [falling, partial curve, poor fit] under setting [2]. On to `CC1=C(c2ccc(F)cc2)S(=O)(=O)N=C1N1CCC(C(=O)NCCc2ccccc2)CC1`, for which the AC50 under setting [1] is 0.00447 µM [falling, full curve]. As to `COc1cccc(C2CC(C(F)(F)F)n3nc(C(=O)NCc4cccnc4)cc3N2)c1` (stereo not drawn), under setting [2], the AC50 was 10 µM [rising, partial curve]. With `Cc1ccc(C)c(NC(=O)C2CCN(c3ncnc4c3nc3n4CCCCC3)CC2)c1`, the AC50 was 0.0501 µM [rising, full curve, poor fit] under setting [1] and 0.0501 µM [rising, partial curve] under setting [2]. As to `Cc1ccc2c(CC(=O)NCC(C)(C)N3CCOCC3)coc2c1`, the AC50 under setting [1] was 3.98 µM [rising, full curve]. Consider `CN1CCO[C@H](c2ccccc2)c2ccccc2C1`, for which the AC50 runs as follows: under setting [1], 0.0708 µM [falling, single point]; under setting [2], 0.158 µM [falling, partial curve, poor fit]. For `Cc1cccc(C)c1NC(=O)NCCCN1CCN(c2ccccc2)CC1`, the AC50 by setting is: under setting [1], 0.158 µM [falling, full curve, poor fit]; under setting [2], 0.178 µM [falling, full curve, poor fit]. Turning to `CCN1CCN(C(=O)c2oc(=O)c3ccccc3c2-c2ccc(C)cc2)CC1`, under setting [2], the AC50 is 14.1 µM [rising, single point]. For `CC(O)C(O)[C@H]1CNc2nc(N)[nH]c(=O)c2N1` (stereo partly drawn), the AC50 under setting [1] is 1.58 µM [falling, partial curve, poor fit]. Turning to `COc1ccc(NC(=O)Cn2c(=O)oc3cc(Cl)ccc32)c(OC)c1`, the AC50 under setting [2] was 0.501 µM [falling, full curve]. As to `Cc1cc([N+](=O)[O-])ccc1-c1ccc(C2Nc3ccccc3C(=O)N2O)o1` (stereo not drawn), the AC50 under setting [1] is 6.31 µM [falling, single point].

For `CCOC(=O)N1CCN(c2nc(-c3ccc(OC)cc3)no2)CC1`, the AC50 is 5.01 µM [rising, full curve] under setting [1] and 12.6 µM [rising, partial curve] under setting [2]. Take `COC(=O)c1cc(NC(=O)c2ccc(-c3ccccc3)cc2)ccc1Cl`: the AC50 by setting is: under setting [1], 12.6 µM [rising, partial curve]; under setting [2], 8.91 µM [rising, partial curve]. With `COc1ccc(C2CC(c3ccccc3)=NN2C(=O)c2cccs2)cc1` (stereo not drawn), under setting [2], the AC50 is 7.08 µM [rising, partial curve, poor fit]. Regarding `O=C(CSc1nc2c([nH]c3ccccc32)c(=O)n1-c1ccccc1)N1CCCc2ccccc21`, under setting [1], the AC50 was 0.316 µM [falling, full curve, poor fit].

As to `CCOC(=O)C1CCN(C(c2ccc(C)cc2)c2c(O)cc(C)n(CCOC)c2=O)CC1` (stereo not drawn), the AC50 under setting [1] is 0.398 µM [rising, full curve, poor fit]. For the compound `CCO/C([O-])=N/c1c[n+](N2CCOCC2)no1`, the AC50 was 35.5 µM [falling, partial curve, poor fit] under setting [1] and 6.31 µM [falling, partial curve, poor fit] under setting [2].

For the compound `Cc1c(CC(Cl)(Cl)Cl)c2c(n1O)CC(C)(C)CC2=O`, the AC50 under setting [1] was 35.5 µM [rising, single point].
